{"source": "PubChem BioAssay AID1259286 (Sanger Institute, 2017)", "assay": "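Kinase knock-downs that reduce colorectal cancer cell viability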 (primary screen)", "cell system": "NCI-H630 human colorectal cancer cells", "reagents": "siRNA pool against human genes", "challenge": "anchor drugs BYL719 at 1 µM, cetuximab at 5 µg/ml or trametinib at 10 nM, or DMSO vehicle alone; exposure time not given", "read-out": "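Viability relative to non-targeting pool wells, averaged over replicates, with robust z-score for knock-down alone and a synergy score for each anchor drug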", "reading the numbers": "viability z-score, knock-down alone: higher = more viable cells, weaker knock-down effect; viability vs control, knock-down alone: higher = more viable cells", "units": "viability vs control, knock-down alone in fraction of control", "hit rule": "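a gene is called essential when its knock-down-alone viability robust z-score is below -3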", "meaning of the calls": "active = essential when knocked down alone; inactive = not essential alone", "note": "The whole screen tested 794 reagents; below is an unselected part. 17 of them (2.1%) count as active. 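Calls use knock-down alone only; synergy above 0.15 marked separately; viability seems capped at control level; exposure time not given.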 A number with no mark means an inactive call. Not all columns of the deposit are shown. Not given: the amount of reagent, the time to read-out."}
{"Gene": "NEK5", "viability z-score, knock-down alone": 0.464, "viability vs control, knock-down alone": 1}
{"Gene": "TPK1", "viability z-score, knock-down alone": -1.4, "viability vs control, knock-down alone": 0.93}
{"Gene": "SRMS", "viability z-score, knock-down alone": -1.05, "viability vs control, knock-down alone": 0.943}
{"Gene": "FGR", "viability z-score, knock-down alone": 0.464, "viability vs control, knock-down alone": 1}

2 entries from above, limited to “viability z-score, knock-down alone”.
SRMS: -1.05
FGR: 0.464

Next entries follow.
{"Gene": "PAPSS1", "viability z-score, knock-down alone": 0.464, "viability vs control, knock-down alone": 1}
{"Gene": "PIK3R3", "viability z-score, knock-down alone": 0.464, "viability vs control, knock-down alone": 1}
{"Gene": "TBCK", "viability z-score, knock-down alone": 0.464, "viability vs control, knock-down alone": 1}
{"Gene": "BRSK1", "viability z-score, knock-down alone": 0.464, "viability vs control, knock-down alone": 1}
{"Gene": "PRKAG3", "viability z-score, knock-down alone": "-4.15 (active)", "viability vs control, knock-down alone": 0.826}
{"Gene": "GNAS", "viability z-score, knock-down alone": 0.464, "viability vs control, knock-down alone": 1}
{"Gene": "TLK1", "viability z-score, knock-down alone": 0.464, "viability vs control, knock-down alone": 1}
{"Gene": "RBKS", "viability z-score, knock-down alone": 0.464, "viability vs control, knock-down alone": 1}
